Assay results: PMC7550656
These are yes or no findings as the source states them, for the method shown. Binding seen in cells or lysates may run through a third protein.

What was measured:
Test in all cases: co-IP; 293T cells cotransfected with G3BP1, G3BP2, TIA1 or TIAR and SVV 3C for 24 h; anti-Flag immunoprecipitation from NP-40 lysate, immunoblot
[1] = molecular target: T1, T-cell internal antigen 1, transfected (human (cDNA of 293T cells)) (UniProt P31483)
T1 sequence: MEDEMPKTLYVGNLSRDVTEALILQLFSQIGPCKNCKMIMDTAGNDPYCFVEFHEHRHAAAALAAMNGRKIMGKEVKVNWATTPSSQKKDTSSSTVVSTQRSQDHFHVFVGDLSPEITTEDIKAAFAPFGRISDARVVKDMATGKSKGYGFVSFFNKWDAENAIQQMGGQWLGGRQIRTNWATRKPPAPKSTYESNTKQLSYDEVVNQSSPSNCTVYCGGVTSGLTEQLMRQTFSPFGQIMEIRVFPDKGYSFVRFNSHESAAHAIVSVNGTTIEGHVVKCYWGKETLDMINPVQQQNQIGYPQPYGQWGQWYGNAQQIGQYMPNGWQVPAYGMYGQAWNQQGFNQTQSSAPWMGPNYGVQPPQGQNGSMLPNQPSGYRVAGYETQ

TIAR, transfected = molecular target: T2, TIAR, transfected (UniProt Q01085)
T2 sequence: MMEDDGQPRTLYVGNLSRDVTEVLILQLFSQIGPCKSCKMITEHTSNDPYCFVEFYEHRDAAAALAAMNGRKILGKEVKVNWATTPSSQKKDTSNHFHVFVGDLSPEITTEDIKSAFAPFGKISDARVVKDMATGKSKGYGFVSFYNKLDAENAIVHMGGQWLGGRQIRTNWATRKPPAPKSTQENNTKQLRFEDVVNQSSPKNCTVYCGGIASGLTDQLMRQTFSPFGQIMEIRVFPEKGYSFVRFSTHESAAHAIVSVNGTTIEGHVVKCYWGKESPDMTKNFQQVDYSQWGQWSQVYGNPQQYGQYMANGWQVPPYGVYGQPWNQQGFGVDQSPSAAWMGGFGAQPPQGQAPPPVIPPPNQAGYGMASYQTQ

G3BP2, transfected = molecular target: T3, G3BP2, transfected (UniProt Q9UN86)
T3 sequence: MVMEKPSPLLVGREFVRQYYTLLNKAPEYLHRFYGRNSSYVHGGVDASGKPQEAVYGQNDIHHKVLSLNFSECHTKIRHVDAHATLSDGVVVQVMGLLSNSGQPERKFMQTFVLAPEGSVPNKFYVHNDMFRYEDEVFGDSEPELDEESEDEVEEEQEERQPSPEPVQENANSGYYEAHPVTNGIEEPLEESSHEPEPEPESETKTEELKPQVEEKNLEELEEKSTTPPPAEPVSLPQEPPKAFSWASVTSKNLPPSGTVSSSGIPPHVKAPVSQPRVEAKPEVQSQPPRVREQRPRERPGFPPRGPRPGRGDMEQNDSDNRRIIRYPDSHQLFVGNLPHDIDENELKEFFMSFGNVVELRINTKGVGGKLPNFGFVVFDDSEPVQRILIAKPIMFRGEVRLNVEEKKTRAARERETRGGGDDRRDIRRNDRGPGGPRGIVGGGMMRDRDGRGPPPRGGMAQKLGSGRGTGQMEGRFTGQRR

Measured: binding

Seneca Valley virus 3C protease (enzyme)
no binding: all assays above
